Reference: publication PMC10022686
Results are given in words; binding and its absence hold for the method and conditions named. Binding seen in cells or lysates may run through a third protein. A result given as binding can be weak or reduced; the word gives no strength.

Sequences of proteins named here, by UniProt entry; tags and fusion partners are left off. A change or cut given only in a name is not applied to a line headed by its entry.
UniProt Q9HD67: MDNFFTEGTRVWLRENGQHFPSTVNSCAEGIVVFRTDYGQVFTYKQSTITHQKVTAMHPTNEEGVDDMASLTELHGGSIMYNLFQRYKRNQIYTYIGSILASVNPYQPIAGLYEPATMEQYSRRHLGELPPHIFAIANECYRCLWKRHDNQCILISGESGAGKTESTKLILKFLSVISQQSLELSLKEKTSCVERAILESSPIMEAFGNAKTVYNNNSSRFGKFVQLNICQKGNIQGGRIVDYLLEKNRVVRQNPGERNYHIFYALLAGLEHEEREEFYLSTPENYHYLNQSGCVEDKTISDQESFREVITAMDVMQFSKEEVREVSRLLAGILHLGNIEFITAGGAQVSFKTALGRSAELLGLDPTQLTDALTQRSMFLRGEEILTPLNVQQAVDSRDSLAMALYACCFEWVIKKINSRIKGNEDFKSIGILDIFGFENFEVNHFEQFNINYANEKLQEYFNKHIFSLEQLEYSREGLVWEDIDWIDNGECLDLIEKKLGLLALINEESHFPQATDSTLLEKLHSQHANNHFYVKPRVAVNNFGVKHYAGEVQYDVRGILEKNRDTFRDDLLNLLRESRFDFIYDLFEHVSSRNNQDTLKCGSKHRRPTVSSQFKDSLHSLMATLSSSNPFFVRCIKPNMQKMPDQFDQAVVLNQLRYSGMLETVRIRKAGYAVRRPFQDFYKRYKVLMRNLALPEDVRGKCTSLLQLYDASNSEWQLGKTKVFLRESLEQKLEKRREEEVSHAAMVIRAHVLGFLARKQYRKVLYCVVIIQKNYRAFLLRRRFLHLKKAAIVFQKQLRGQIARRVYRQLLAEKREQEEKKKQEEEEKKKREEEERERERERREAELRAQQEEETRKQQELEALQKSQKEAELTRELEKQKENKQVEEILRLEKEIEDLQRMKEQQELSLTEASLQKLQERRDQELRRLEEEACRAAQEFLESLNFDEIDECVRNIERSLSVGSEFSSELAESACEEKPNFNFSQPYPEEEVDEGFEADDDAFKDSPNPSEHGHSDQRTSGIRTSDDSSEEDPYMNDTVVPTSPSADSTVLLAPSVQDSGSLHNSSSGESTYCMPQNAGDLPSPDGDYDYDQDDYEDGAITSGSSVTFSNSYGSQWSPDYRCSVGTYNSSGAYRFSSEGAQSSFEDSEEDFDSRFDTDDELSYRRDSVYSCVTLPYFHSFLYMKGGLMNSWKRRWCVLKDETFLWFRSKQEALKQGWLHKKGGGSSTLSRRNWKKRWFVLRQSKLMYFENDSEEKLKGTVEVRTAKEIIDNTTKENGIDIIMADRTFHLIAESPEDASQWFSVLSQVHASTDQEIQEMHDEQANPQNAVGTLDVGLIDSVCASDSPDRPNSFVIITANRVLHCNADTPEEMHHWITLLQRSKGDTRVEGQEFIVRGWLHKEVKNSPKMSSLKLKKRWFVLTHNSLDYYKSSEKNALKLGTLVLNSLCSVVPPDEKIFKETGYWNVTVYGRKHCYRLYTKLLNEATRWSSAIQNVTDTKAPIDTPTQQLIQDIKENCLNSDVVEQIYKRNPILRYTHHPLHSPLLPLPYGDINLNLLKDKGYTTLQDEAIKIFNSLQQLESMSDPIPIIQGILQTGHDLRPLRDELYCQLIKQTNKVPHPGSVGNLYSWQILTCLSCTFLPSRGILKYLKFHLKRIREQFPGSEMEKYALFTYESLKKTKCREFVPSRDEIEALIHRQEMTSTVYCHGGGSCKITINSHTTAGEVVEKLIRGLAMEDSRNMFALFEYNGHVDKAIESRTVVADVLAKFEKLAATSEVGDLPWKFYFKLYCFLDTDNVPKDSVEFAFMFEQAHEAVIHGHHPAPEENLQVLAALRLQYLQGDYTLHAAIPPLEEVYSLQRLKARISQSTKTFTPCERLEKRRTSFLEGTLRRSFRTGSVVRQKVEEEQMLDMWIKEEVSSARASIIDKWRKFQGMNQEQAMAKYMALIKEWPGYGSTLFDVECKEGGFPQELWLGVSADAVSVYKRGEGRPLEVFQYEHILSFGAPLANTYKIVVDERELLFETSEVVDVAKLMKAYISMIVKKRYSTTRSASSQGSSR
UniProt Q70E73: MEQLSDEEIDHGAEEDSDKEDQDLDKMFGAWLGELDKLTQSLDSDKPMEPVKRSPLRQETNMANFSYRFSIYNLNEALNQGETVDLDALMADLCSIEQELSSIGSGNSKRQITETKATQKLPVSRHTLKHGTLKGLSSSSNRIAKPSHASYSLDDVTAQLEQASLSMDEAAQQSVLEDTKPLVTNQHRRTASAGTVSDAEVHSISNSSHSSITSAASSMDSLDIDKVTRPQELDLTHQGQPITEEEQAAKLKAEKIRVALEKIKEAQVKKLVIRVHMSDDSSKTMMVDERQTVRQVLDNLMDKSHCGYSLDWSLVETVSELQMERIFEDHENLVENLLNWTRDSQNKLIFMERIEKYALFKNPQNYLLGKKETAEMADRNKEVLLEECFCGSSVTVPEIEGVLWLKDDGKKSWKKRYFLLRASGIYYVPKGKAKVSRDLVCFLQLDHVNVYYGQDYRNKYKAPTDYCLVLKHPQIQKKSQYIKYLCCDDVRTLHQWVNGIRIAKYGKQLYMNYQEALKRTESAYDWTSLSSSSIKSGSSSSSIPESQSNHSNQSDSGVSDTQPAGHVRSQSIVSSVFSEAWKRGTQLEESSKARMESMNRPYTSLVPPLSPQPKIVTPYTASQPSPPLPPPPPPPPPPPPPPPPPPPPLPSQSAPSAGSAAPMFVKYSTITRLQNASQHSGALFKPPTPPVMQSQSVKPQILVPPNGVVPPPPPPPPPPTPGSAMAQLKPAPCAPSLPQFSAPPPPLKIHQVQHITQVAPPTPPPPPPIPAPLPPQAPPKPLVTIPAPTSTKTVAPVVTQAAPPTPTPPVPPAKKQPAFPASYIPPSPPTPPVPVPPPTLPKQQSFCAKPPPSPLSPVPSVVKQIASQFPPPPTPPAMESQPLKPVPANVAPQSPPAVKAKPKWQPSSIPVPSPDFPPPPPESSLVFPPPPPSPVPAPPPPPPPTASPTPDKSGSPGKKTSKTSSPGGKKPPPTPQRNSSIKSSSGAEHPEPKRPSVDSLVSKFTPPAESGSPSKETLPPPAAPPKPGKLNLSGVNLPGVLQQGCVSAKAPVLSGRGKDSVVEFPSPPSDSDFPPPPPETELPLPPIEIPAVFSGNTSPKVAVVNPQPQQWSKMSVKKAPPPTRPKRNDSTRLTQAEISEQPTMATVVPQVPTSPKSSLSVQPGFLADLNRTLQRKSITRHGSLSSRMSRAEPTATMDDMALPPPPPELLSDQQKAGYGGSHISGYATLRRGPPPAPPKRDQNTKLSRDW

Target: GFP–MYO10^FERM (MyTH4/FERM domain of myosin-X) (UniProt Q9HD67)
Test: co-IP; GFP pulldown in U2-OS cells expressing GFP–MYO10^FERM, GFP–Talin^FERM or GFP alone; endogenous RAPH1 detected by western blotting

## lamellipodin (RAPH1), endogenous in U2-OS cells (from UniProt Q70E73 1-1250)
  binding: binds
